Experimental data from PubChem BioAssay AID504467 (National Center for Advancing Translational Sciences (NCATS), 2011).
In all, about 330,000 compounds went through this assay and about 7,700 (2.3%) were called active. Inconclusive means that the source gave no clear call. Such entries were picked first, then a sample of the others. Calls follow the shape of the dose curve; as a rule, active = well fitted inhibition curve with a large enough effect; inconclusive = small, poorly fitted or top-dose-only effect, or effect the other way; inactive = flat fitted curve, though single readings scatter. Where the call is inconclusive, the potency comes from a doubtful curve fit.

experiment: qHTS screen for small molecules that inhibit ELG1-dependent DNA repair in human embryonic kidney (HEK293T) cells expressing luciferase-tagged ELG1; details: HEK293T ELG1-luciferase reporter, luminescence, 16 h, DNA damage induced by 5-fluorouridine; activity change, negative = inhibition: at 46.1 µM (top of the series); also: nearly all actives have a fitted effect of over 55% in size
Summary of the method: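 Reporter activity after DNA damage by 5-fluorouridine is monitored. Compound-treated cells incubate 16 hr at 37 °C, then ONE-Glo is added for 30 min before luminescence reading.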
% is scaled to controls: 0 for no effect and ±100 for the full control effect; potency is read from the fitted curve at half-maximal effect.

SMILES | Potency | activity change, negative = inhibition
COc1ccccc1N1CCN(C(=O)c2ccc(CSc3ccccc3)cc2)CC1 | active: 23.1 µM | –
CN(Cc1ccccc1)C(=O)C1CCCN(Cc2ccc(Cl)cc2)C1 (centres undefined) | inconclusive: 12.6 µM [inhibitor, single point] | –
C=CCN(CC=C)C(=O)c1c(OC)cccc1OC | – | inactive: -6.85%
COc1ccc(-c2cc3c(=O)n(CC(=O)NCc4ccc(C)cc4)ncn3n2)cc1 | inconclusive: 10.3 µM [activator, partial curve] | –
CN(Cc1ccno1)C(=O)CC1C(=O)NCCN1CC(c1ccccc1)c1ccccc1 (centres undefined) | – | inactive: 1.96%
Cc1cc(/C=C2/C(=O)N(C)C(=S)N2C)ccc1N1CCCC1 | inconclusive: 16.4 µM [activator, partial curve] | –
O=C1NC(=Nc2ccccc2)S/C1=C\c1cccn1-c1ccccc1 | inconclusive: 0.731 µM [activator, single point] | –
O=S(=O)(c1ccccc1)c1cnn2c(C(F)(F)F)cc(-c3ccccc3)nc12 | – | inactive: -6.25%
COc1ccc(C(=O)NC(C)c2nccs2)cc1OC1CCN(C(C)C)CC1 (centres undefined) | inconclusive: 16.4 µM [activator, partial curve, poor fit] | –
COc1ccc(/C=C2\CCC(C3CCCC3)C2=O)c(OC)c1 (centres undefined) | inconclusive: 20.6 µM [activator, single point] | –
CCC1C(=NO)C(CC)C(c2ccccc2)NC1c1ccccc1 (centres undefined) | – | inactive: -5.06%
Cc1ccc(-c2nnc(-c3cccs3)o2)cc1 | inconclusive: 7.3 µM [activator, partial curve] | –
Cc1ccc(NC(=O)CN2CCCC2c2cccn2C)c(Br)c1 (centres undefined) | inconclusive: 5.8 µM [activator, single point] | –
O=C(c1cc(Cl)cc(Cl)c1)N1CCOCC1 | inconclusive: 0.0058 µM [inhibitor, full curve, poor fit] | –
CCN(c1ccccc1)S(=O)(=O)c1ccc(OCC(=O)Nc2cc(C)on2)cc1 | inconclusive: 0.0065 µM [activator, full curve, poor fit] | –
N#Cc1cc2c([nH]c1=S)CCCC2 | inconclusive: 9.2 µM [activator, partial curve] | –
Oc1c(Br)cc(Br)cc1/C=N/c1nccs1 | – | inactive: -15.5%
O=C(c1cc(-c2cccs2)on1)N1CCOCC1 | inconclusive: 18.4 µM [activator, partial curve] | –
CCOC(=O)c1ccc2[nH]c3c(c2c1)CCCC3NC=O (centres undefined) | inconclusive: 18.3 µM [activator, partial curve] | –
O=C(c1csc(Nc2ccccc2Cl)n1)N1CCCC1 | inconclusive: 5.8 µM [activator, full curve] | –
C=CCOc1c(Cl)cc(CNc2ccc(N(C)C)cc2)cc1OC | – | inactive: 10.7%
[O-][n+]1c2c(c3c4non(O)c4ccc31)CCCC2 | active: 23.1 µM | –

Look-ups from the list:
Value for COc1ccc(-c2cc3c(=O)n(CC(=O)NCc4ccc(C)cc4)ncn3n2)cc1 under Potency: inconclusive: 10.3 µM [activator, partial curve]
Value for CCOC(=O)c1ccc2[nH]c3c(c2c1)CCCC3NC=O (centres undefined) under Potency: inconclusive: 18.3 µM [activator, partial curve]
Value for Cc1ccc(-c2nnc(-c3cccs3)o2)cc1 under Potency: inconclusive: 7.3 µM [activator, partial curve]

Carrying on.

SMILES | Potency | activity change, negative = inhibition
COc1cc(C(=O)Oc2ccccc2/C=N/NC(=O)c2ccc(C)c(Cl)c2)cc(OC)c1OC | active: 4.61 µM | –
Cc1noc(C(=O)N2CCN(c3ccccc3)CC2)c1Cl | inconclusive: 18.3 µM [activator, partial curve, poor fit] | –
COc1cccc(-c2cc(C(=O)Nc3cc(C)nn3-c3ccccc3)no2)c1 | inconclusive: 20.6 µM [activator, single point] | –
O=C(COc1ccc(F)cc1Br)N1CCc2ccccc21 | inconclusive: 3.66 µM [activator, partial curve] | –
O=C(COc1ccc2c(c1)oc(=O)c1ccccc12)NCCN1CCOCC1 | inconclusive: 18.3 µM [activator, single point] | –
CCOc1cc(-c2cc(-c3ccccc3)nc(N)c2C#N)ccc1O | inconclusive: 32.6 µM [inhibitor, single point] | –
COc1ccc(-n2c(C)c(C(C)=O)c3cc(O)ccc32)cc1 | active: 0.82 µM | –
O=C(CCc1ccc(S(=O)(=O)N2CCOCC2)cc1)Nc1nc(COc2ccccc2)cs1 | active: 20.6 µM | –
Cc1sc2ncnc(N3CCC(C(=O)NCC(=O)Nc4ccc(F)c(F)c4)CC3)c2c1C | inconclusive: 29.1 µM [inhibitor, single point] | –
COc1ccc(CN(C(=O)c2cc(=O)c3cc(C)cc(C)c3o2)C2CCS(=O)(=O)C2)cc1 (centres undefined) | inconclusive: 20.6 µM [inhibitor, partial curve, poor fit] | –
CC(C)Oc1ccc(N2C(=O)c3ccccc3C2=O)cc1 | inconclusive: 14.6 µM [activator, partial curve] | –
O=C(OC1CCOC1=O)C1CCN(S(=O)(=O)c2ccccc2)CC1 (centres undefined) | inconclusive: 32.6 µM [activator, partial curve, poor fit] | –
Cc1ccc(OCC(=O)N/N=C\c2c(C)n(C)c3ccccc23)c([N+](=O)[O-])c1 | inconclusive: 29.1 µM [inhibitor, single point] | –
Cc1cccc(N/N=C/c2ccccc2O)c1 | inconclusive: 16.4 µM [activator, partial curve] | –
O=C(CCC(=O)N1CCCC1)N1CCCC1 | – | inactive: -0.274%
CCOc1cnc(-c2c(-c3c(Cl)cccc3Cl)noc2C)o1 | inconclusive: 23.1 µM [inhibitor, single point] | –
CC(C)(C)C(=O)N1CCN(c2ccc([N+](=O)[O-])cc2-n2cccc2)CC1 | inconclusive: 32.6 µM [inhibitor, single point] | –
CCOC(=O)C1CCN(c2cc3c(cc2NC(=O)c2ccccc2)n(C)c(=O)n3C)CC1 | inconclusive: 3.66 µM [inhibitor, partial curve] | –
O=C(Nc1cc(S(=O)(=O)N2CCOCC2)ccc1N1CCCC1)C1COc2ccccc2O1 (centres undefined) | inconclusive: 23.1 µM [activator, partial curve, poor fit] | –
COc1ccc(N(CC(=O)Nc2ccccc2C(=O)N2CCCC2)S(=O)(=O)c2ccccc2)cc1 | – | inactive: -11.3%
Cc1ccc(-n2ncc3c2CC(C)(C)CC3NC(=O)CCc2ccc(=O)[nH]n2)cc1 (centres undefined) | – | inactive: -1.23%
O=C(Nc1ncc(Cc2cccc(C(F)(F)F)c2)s1)C1CCCO1 (centres undefined) | inconclusive: 9.2 µM [activator, partial curve] | –
